Data from patent US20240034729A9, “HETEROCYCLIC COMPOUND, INTERMEDIATE, PREPARATION METHOD THEREFOR AND APPLICATION THEREOF” (WUHAN LL SCIENCE AND TECHNOLOGY DEVELOPMENT CO., LTD., priority 2018, published 2024).
At least one structure is not confirmed: it was looked up by name or label, or the drawing left a doubt.

Test system: Male Dunkin Hartley guinea pigs
Assay: Citric acid only cough model
Type: in vivo, guinea pig
Details: 30 mg/kg, compared with the blank vehicle or the condition before administration
Protocol: Male Dunkin Hartley guinea pigs (300-350 g) were placed in an animal atomization box, and then the door of the atomization box was closed while the ultrasonic atomizer (Guangdong Yuehua) was turned on. 17.5% citric acid gas was introduced into the atomization box at a maximum atomization rate (about 2 mL/min) for 20 s, and coughs of the animals within 10 min were continuously observed from the time of the start of atomization. During the 10-min observation, coughs of the animals were counted manually, and the number of coughs were judged according to cough postures of the guinea pigs, such as abdominal twitching, mouth opening, and head inclining downward abruptly. The number of coughs during the first 5 min and that during 10 min were recorded, and the cough latency of the guinea pigs, namely the time from the initiation of citric acid induction to the appearance of the first cough, was also recorded.

## CCC(=O)c1ccn(-c2cc(F)c(-c3nc4cc(C)ccn4c3C[C@H]3CN(C(=O)OC)CCO3)c(F)c2)n1 [Compound 164, methyl (S)-2-((2-(2,6-difluoro-4-(3-propionyl-1H-pyrazol-1-yl)phenyl)-7-methylimidazo[1,2-a]pyridin-3-yl)methyl) morpholine-4-carboxylate]
  Number of coughs and cough latency (in words): can effectively reduce the number of coughs and prolong the cough latency
